In PMC2788698:
No constants are given. Whether binding was seen depends on the method and setting. Binding seen in cells or lysates may run through a third protein. Tags and fused reporters may be left off the sequences shown.

Biological target: T1, HA-tagged STN-1 (syntrophin) (C. elegans) (UniProt Q93646)
T1 sequence: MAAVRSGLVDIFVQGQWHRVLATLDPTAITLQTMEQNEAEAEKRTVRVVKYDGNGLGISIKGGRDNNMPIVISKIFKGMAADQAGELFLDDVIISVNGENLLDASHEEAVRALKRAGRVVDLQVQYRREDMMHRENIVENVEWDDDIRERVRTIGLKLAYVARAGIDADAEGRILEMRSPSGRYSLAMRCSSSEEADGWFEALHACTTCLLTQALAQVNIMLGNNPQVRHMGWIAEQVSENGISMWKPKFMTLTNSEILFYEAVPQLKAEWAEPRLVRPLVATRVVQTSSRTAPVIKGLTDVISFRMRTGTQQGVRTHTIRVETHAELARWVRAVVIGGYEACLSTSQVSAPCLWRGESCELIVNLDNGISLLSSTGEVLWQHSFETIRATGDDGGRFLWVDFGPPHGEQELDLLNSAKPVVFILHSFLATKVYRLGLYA
Experiment: co-IP; epitope-tagged (FLAG, HA) proteins transiently transfected in HEK293 cells; immunoprecipitation and Western blot with FLAG or HA antibody, both directions

binding: no binding
Substance: FLAG-tagged ISLO-1Δ4C(54-354), lacking the consensus type I PDZ interaction sequence (C. elegans) (domain or fragment)
